According to the supplement of paper PMC8728848:
Some of the results follow.

Columns and labels:
Assay in all cases: glycan array binding signal (z-score within array); higher = stronger binding
Conditions in all cases: glycan notation: IUPAC condensed, linker removed
[1] = biological target: Fuc(a1-2)[Gal(a1-3)]Gal(b1-4)GlcNAc(b1-2)Man(a1-3)[Fuc(a1-2)[Gal(a1-3)]Gal(b1-4)GlcNAc(b1-2)Man(a1-6)]Man(b1-4)GlcNAc(b1-4)GlcNAc
In short: (§1)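 The Consortium for Functional Glycomics database supplied 3228 glycan arrays, of which those lacking an available protein sequence were dropped. The binding signal, a within-array Z-score, was averaged across arrays of the same protein sequence and across linkers. Negative scores can be read as non-binding.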

[2] = biological target: Fuc(a1-2)[Gal(a1-3)]Gal(b1-4)GlcNAc(b1-2)Man(a1-3)[Fuc(a1-2)[Gal(a1-3)]Gal(b1-4)GlcNAc(b1-2)Man(a1-6)]Man(b1-4)GlcNAc(b1-4)[Fuc(a1-6)]GlcNAc
In short: as §1

[3] = biological target: Fuc(a1-2)[Gal(a1-3)]Gal(b1-4)GlcNAc(b1-3)GalNAc
In short: as §1

[4] = biological target: Fuc(a1-2)[Gal(a1-3)]Gal(b1-4)GlcNAc(b1-3)[Fuc(a1-2)[Gal(a1-3)]Gal(b1-4)GlcNAc(b1-6)]GalNAc
In short: as §1

[5] = biological target: Fuc(a1-2)[Gal(a1-3)]Gal(b1-4)GlcNAc(b1-6)GalNAc
In short: as §1

[6] = biological target: Fuc(a1-2)[Gal(a1-3)]Gal(b1-4)[Fuc(a1-3)]Glc
In short: as §1

[7] = biological target: Fuc(a1-2)[Gal(a1-3)]Gal(b1-4)[Fuc(a1-3)]GlcNAc
In short: as §1

[8] = biological target: Fuc(a1-2)[Gal(a1-3)]Gal(b1-4)[Fuc(a1-3)]GlcNAc(b1-3)GalNAc
In short: as §1

[9] = biological target: Fuc(a1-2)[Gal(a1-4)]Gal(b1-4)GlcNAc
In short: as §1

[10] = biological target: Fuc(a1-2)[GalNAc(a1-3)]Gal
In short: as §1

[11] = biological target: Fuc(a1-2)[GalNAc(a1-3)]Gal(b1-3)GalNAc(a1-3)[Fuc(a1-2)]Gal(b1-4)GlcNAc
In short: as §1

[12] = biological target: Fuc(a1-2)[GalNAc(a1-3)]Gal(b1-3)GalNAc(b1-3)Gal(a1-4)Gal(b1-4)Glc
In short: as §1

[13] = biological target: Fuc(a1-2)[GalNAc(a1-3)]Gal(b1-3)GlcNAc
In short: as §1

[14] = biological target: Fuc(a1-2)[GalNAc(a1-3)]Gal(b1-3)GlcNAc(b1-2)Man(a1-3)[Fuc(a1-2)[GalNAc(a1-3)]Gal(b1-3)GlcNAc(b1-2)Man(a1-6)]Man(b1-4)GlcNAc(b1-4)GlcNAc
In short: as §1

[15] = biological target: Fuc(a1-2)[GalNAc(a1-3)]Gal(b1-3)GlcNAc(b1-2)Man(a1-3)[Fuc(a1-2)[GalNAc(a1-3)]Gal(b1-3)GlcNAc(b1-2)Man(a1-6)]Man(b1-4)GlcNAc(b1-4)[Fuc(a1-6)]GlcNAc
In short: as §1

[16] = biological target: Fuc(a1-2)[GalNAc(a1-3)]Gal(b1-3)GlcNAc(b1-3)GalNAc
In short: as §1

[17] = biological target: Fuc(a1-2)[GalNAc(a1-3)]Gal(b1-3)GlcNAc(b1-6)GalNAc
In short: as §1

[18] = biological target: Fuc(a1-2)[GalNAc(a1-3)]Gal(b1-4)Glc
In short: as §1

[19] = biological target: Fuc(a1-2)[GalNAc(a1-3)]Gal(b1-4)GlcNAc
In short: as §1

[20] = biological target: Fuc(a1-2)[GalNAc(a1-3)]Gal(b1-4)GlcNAc(b1-2)Man
In short: as §1

[21] = biological target: Fuc(a1-2)[GalNAc(a1-3)]Gal(b1-4)GlcNAc(b1-2)Man(a1-3)[Fuc(a1-2)[GalNAc(a1-3)]Gal(b1-4)GlcNAc(b1-2)Man(a1-6)]Man(b1-4)GlcNAc(b1-4)GlcNAc
In short: as §1

[22] = biological target: Fuc(a1-2)[GalNAc(a1-3)]Gal(b1-4)GlcNAc(b1-2)Man(a1-3)[Fuc(a1-2)[GalNAc(a1-3)]Gal(b1-4)GlcNAc(b1-2)Man(a1-6)]Man(b1-4)GlcNAc(b1-4)[Fuc(a1-6)]GlcNAc
In short: as §1

[23] = biological target: Fuc(a1-2)[GalNAc(a1-3)]Gal(b1-4)GlcNAc(b1-3)Gal(b1-4)GlcNAc
In short: as §1

[24] = biological target: Fuc(a1-2)[GalNAc(a1-3)]Gal(b1-4)GlcNAc(b1-3)Gal(b1-4)GlcNAc(b1-3)Gal(b1-4)GlcNAc
In short: as §1

[25] = biological target: Fuc(a1-2)[GalNAc(a1-3)]Gal(b1-4)GlcNAc(b1-3)GalNAc
In short: as §1

[26] = biological target: Fuc(a1-2)[GalNAc(a1-3)]Gal(b1-4)GlcNAc(b1-3)[Fuc(a1-2)[GalNAc(a1-3)]Gal(b1-4)GlcNAc(b1-6)]GalNAc
In short: as §1

[27] = biological target: Fuc(a1-2)[GalNAc(a1-3)]Gal(b1-4)GlcNAc(b1-6)GalNAc
In short: as §1

[28] = biological target: Fuc(a1-2)[GalNAc(a1-3)]Gal(b1-4)[Fuc(a1-3)]GlcNAc
In short: as §1

[29] = biological target: Fuc(a1-2)[GalNAc(a1-3)]Gal(b1-4)[Fuc(a1-3)]GlcNAc(b1-3)GalNAc
In short: as §1

[30] = biological target: Fuc(a1-2)[GalNAc(a1-4)]Gal(b1-4)GlcNAc
In short: as §1

[31] = biological target: Fuc(a1-2)[GalNAc(b1-3)]Gal
In short: as §1

[32] = biological target: Fuc(a1-3)GlcNAc
In short: as §1

[33] = biological target: Fuc(a1-3)[Gal(b1-4)]Glc6S
In short: as §1

[34] = biological target: Fuc(a1-3)[Gal(b1-4)]GlcNAc
In short: as §1

[35] = biological target: Fuc(a1-3)[Gal(b1-4)]GlcNAc(b1-2)Man
In short: as §1

[36] = biological target: Fuc(a1-3)[Gal(b1-4)]GlcNAc(b1-2)Man(a1-3)[Fuc(a1-3)[Gal(b1-4)]GlcNAc(b1-2)Man(a1-6)]Man(b1-4)GlcNAc(b1-4)GlcNAc
In short: as §1

[37] = biological target: Fuc(a1-3)[Gal(b1-4)]GlcNAc(b1-2)Man(a1-3)[Fuc(a1-3)[Gal(b1-4)]GlcNAc(b1-2)Man(a1-6)]Man(b1-4)GlcNAc(b1-4)[Fuc(a1-6)]GlcNAc
In short: as §1

[38] = biological target: Fuc(a1-3)[Gal(b1-4)]GlcNAc(b1-3)Gal(b1-3)[Fuc(a1-4)]GlcNAc
In short: as §1

[39] = biological target: Fuc(a1-3)[Gal(b1-4)]GlcNAc(b1-3)Gal(b1-4)[Fuc(a1-3)]GlcNAc
In short: as §1

[40] = biological target: Fuc(a1-3)[Gal(b1-4)]GlcNAc(b1-3)Gal(b1-4)[Fuc(a1-3)]GlcNAc(b1-3)Gal(b1-4)[Fuc(a1-3)]GlcNAc
In short: as §1

[41] = biological target: Fuc(a1-3)[Gal(b1-4)]GlcNAc(b1-3)GalNAc
In short: as §1

[42] = biological target: Fuc(a1-3)[Gal(b1-4)]GlcNAc(b1-6)GalNAc
In short: as §1

[43] = biological target: Fuc(a1-3)[Gal(b1-4)]GlcNAc(b1-6)[Gal(b1-3)GlcNAc(b1-3)]Gal(b1-4)Glc
In short: as §1

[44] = biological target: Fuc(a1-3)[Gal(b1-4)]GlcNAc6S
In short: as §1

[45] = biological target: Fuc(a1-3)[Gal3S(b1-4)]Glc
In short: as §1

[46] = biological target: Fuc(a1-3)[Gal3S(b1-4)]GlcNAc
In short: as §1

[47] = biological target: Fuc(a1-3)[Gal3S(b1-4)]GlcNAc6S
In short: as §1

[48] = biological target: Fuc(a1-3)[GalNAc(b1-4)]GlcNAc
In short: as §1

[49] = biological target: Fuc(a1-3)[GalNAc(b1-4)]GlcNAc6S
In short: as §1

[50] = biological target: Fuc(a1-4)GlcNAc
In short: as §1

[51] = biological target: Fuc(b1-3)GlcNAc
In short: as §1

[52] = biological target: Gal(a1-2)Gal
In short: as §1

[53] = biological target: Gal(a1-3)Gal
In short: as §1

[54] = biological target: Gal(a1-3)Gal(b1-3)GlcNAc
In short: as §1

[55] = biological target: Gal(a1-3)Gal(b1-3)GlcNAc(b1-2)Man
In short: as §1

[56] = biological target: Gal(a1-3)Gal(b1-3)GlcNAc(b1-2)Man(a1-3)[Gal(a1-3)Gal(b1-3)GlcNAc(b1-2)Man(a1-6)]Man(b1-4)GlcNAc(b1-4)GlcNAc
In short: as §1

[57] = biological target: Gal(a1-3)Gal(b1-3)GlcNAc(b1-3)GalNAc
In short: as §1

[58] = biological target: Gal(a1-3)Gal(b1-3)GlcNAc(b1-6)GalNAc
In short: as §1

[59] = biological target: Gal(a1-3)Gal(b1-3)[Fuc(a1-4)]GlcNAc(b1-2)Man(a1-3)[Gal(a1-3)Gal(b1-3)[Fuc(a1-4)]GlcNAc(b1-2)Man(a1-6)]Man(b1-4)GlcNAc(b1-4)GlcNAc
In short: as §1

[60] = biological target: Gal(a1-3)Gal(b1-4)Glc
In short: as §1

B1: BT4246 (Bacteroides thetaiotaomicron), Q89ZX5 (protein)
chain: MGSSHHHHHHENLYFQGHMASDYLDVVPPEQPNIDDAMSSPTRALGFLYSCYGGVSTDLPSAYLGEINSTTDEYVLPYSWNTDGYWGAYAFNTASSTNQDWLWGTTYQYIGQCYLFLQKLENAGSDIASDAEKEQWRAECQFLVAYYHFATLRRYGPIPITDSYIPMDTPTSEYNGRFHFDYCVDWIANQLDEAAKVLPANRTVTNEWGRATSTIAKAVKARLLLYAASPLWNGSFPYPNWQNENFETPGYGKALVSNTYDKSKWERALAACQEALTLATTSGDRELYDDDEYYSRQSLNLPFVPGVADVEDNKEFLKNVMKMRYAVSTRESEGNKEIIWGLSNQFDFYSRYPLRILKKSDGTWHAGYSGVSPTLYTFEHFYTANGKLPEKDLDFTPSSEWFESAGISSREDIIKLNVGREPRFYAWMAFDGGDYGTKFAAGSPLKLEMRNSEMHGYNPSLFNRDHSVTGFLTQKFVDPVTEFYTAGGSTSGTSAPTILFRLAELYLNVAECHAALGNTQEAIDALNPVRERAGIPKLTLADITNNMTIKDWVHNERFVELWNEGHRFFDVRRWAEGAKYFGANKREGLNAEVQSPTFEEFNKRTTVDAPYVWENRMYLNPVFYNEVYKNPQMVQAPGY
glycan array binding signal (z-score) [1]: 2.43
glycan array binding signal (z-score) [2]: -1.11
glycan array binding signal (z-score) [3]: 1.88
glycan array binding signal (z-score) [4]: -0.949
glycan array binding signal (z-score) [5]: 0.41
glycan array binding signal (z-score) [6]: -0.611
glycan array binding signal (z-score) [7]: 1.18
glycan array binding signal (z-score) [8]: -0.469
glycan array binding signal (z-score) [9]: -0.605
glycan array binding signal (z-score) [10]: -1.02
glycan array binding signal (z-score) [11]: -0.798
glycan array binding signal (z-score) [12]: -1.28
glycan array binding signal (z-score) [13]: 0.796
glycan array binding signal (z-score) [14]: -0.214
glycan array binding signal (z-score) [15]: -0.772
glycan array binding signal (z-score) [16]: 0.196
glycan array binding signal (z-score) [17]: -1.32
glycan array binding signal (z-score) [18]: 0.594
glycan array binding signal (z-score) [19]: -0.759
glycan array binding signal (z-score) [20]: -0.729
glycan array binding signal (z-score) [21]: 0.541
glycan array binding signal (z-score) [22]: -0.126
glycan array binding signal (z-score) [23]: 2.16
glycan array binding signal (z-score) [24]: 0.74
glycan array binding signal (z-score) [25]: -0.018
glycan array binding signal (z-score) [26]: 0.94
glycan array binding signal (z-score) [27]: -0.679
glycan array binding signal (z-score) [28]: -2.1
glycan array binding signal (z-score) [29]: -0.568
glycan array binding signal (z-score) [30]: 0.527
glycan array binding signal (z-score) [31]: -0.491
glycan array binding signal (z-score) [32]: -1.71
glycan array binding signal (z-score) [33]: 1.48
glycan array binding signal (z-score) [34]: 1.44
glycan array binding signal (z-score) [35]: 0.571
glycan array binding signal (z-score) [36]: -0.536
glycan array binding signal (z-score) [37]: -0.062
glycan array binding signal (z-score) [38]: -1.5
glycan array binding signal (z-score) [39]: 0.61
glycan array binding signal (z-score) [40]: -0.484
glycan array binding signal (z-score) [41]: -0.422
glycan array binding signal (z-score) [42]: -0.061
glycan array binding signal (z-score) [43]: -0.254
glycan array binding signal (z-score) [44]: -1.45
glycan array binding signal (z-score) [45]: 1.27
glycan array binding signal (z-score) [46]: -0.584
glycan array binding signal (z-score) [47]: -0.7
glycan array binding signal (z-score) [48]: 1.29
glycan array binding signal (z-score) [49]: -0.444
glycan array binding signal (z-score) [50]: -0.637
glycan array binding signal (z-score) [51]: -0.792
glycan array binding signal (z-score) [52]: -0.225
glycan array binding signal (z-score) [53]: -1.17
glycan array binding signal (z-score) [54]: 1.69
glycan array binding signal (z-score) [55]: -0.436
glycan array binding signal (z-score) [56]: 1.06
glycan array binding signal (z-score) [57]: -0.409
glycan array binding signal (z-score) [58]: 1.53
glycan array binding signal (z-score) [59]: 0.85
glycan array binding signal (z-score) [60]: 0.389
